Data from the supplement of paper PMC10849652.
Some of the results follow.

The chains behind the UniProt entries cited, without tags or fusion partners. Where a name states a change or a piece, a line headed by the entry shows the natural chain unless it says otherwise.
UniProt O43592: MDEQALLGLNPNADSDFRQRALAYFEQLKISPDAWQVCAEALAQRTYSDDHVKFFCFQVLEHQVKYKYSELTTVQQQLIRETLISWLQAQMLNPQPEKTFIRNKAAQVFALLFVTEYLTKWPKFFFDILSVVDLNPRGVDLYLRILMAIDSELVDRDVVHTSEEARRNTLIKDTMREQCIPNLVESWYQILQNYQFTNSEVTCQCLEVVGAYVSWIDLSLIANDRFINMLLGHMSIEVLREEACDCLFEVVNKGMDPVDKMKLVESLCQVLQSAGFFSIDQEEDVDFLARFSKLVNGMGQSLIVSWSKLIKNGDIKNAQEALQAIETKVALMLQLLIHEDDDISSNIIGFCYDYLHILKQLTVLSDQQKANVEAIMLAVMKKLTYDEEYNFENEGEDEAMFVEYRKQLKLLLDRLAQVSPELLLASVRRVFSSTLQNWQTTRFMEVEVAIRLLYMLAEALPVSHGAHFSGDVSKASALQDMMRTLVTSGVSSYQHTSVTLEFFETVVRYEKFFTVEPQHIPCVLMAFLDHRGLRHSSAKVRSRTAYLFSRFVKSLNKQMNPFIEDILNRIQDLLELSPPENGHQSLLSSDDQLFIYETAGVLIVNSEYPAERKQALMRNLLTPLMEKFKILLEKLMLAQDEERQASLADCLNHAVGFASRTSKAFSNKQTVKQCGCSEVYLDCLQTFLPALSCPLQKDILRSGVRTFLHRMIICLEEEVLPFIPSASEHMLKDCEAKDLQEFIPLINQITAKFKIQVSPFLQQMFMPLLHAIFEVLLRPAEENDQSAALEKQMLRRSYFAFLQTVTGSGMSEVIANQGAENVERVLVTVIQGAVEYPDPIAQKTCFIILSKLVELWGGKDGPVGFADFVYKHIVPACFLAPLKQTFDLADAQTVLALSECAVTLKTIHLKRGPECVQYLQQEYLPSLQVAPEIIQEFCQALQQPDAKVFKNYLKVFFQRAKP
UniProt Q96JP5: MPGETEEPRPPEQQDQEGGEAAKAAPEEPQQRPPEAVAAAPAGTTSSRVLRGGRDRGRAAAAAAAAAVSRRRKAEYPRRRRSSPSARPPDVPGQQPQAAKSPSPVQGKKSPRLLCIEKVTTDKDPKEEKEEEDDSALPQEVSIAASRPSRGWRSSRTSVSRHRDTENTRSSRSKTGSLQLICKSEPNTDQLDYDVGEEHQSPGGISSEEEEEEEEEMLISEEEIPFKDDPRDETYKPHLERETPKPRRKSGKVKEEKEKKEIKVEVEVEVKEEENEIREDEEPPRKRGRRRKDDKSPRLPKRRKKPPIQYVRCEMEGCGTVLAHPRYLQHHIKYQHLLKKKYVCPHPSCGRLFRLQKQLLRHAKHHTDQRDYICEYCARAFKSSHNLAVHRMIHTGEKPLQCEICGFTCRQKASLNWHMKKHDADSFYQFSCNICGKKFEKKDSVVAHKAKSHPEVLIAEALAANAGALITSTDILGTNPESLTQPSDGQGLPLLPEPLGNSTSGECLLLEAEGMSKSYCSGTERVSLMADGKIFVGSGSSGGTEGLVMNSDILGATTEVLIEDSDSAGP
UniProt P62699: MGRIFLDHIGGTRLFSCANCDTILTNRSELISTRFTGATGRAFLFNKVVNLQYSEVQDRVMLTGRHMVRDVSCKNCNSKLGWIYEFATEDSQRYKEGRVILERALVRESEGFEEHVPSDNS
UniProt Q96TA2: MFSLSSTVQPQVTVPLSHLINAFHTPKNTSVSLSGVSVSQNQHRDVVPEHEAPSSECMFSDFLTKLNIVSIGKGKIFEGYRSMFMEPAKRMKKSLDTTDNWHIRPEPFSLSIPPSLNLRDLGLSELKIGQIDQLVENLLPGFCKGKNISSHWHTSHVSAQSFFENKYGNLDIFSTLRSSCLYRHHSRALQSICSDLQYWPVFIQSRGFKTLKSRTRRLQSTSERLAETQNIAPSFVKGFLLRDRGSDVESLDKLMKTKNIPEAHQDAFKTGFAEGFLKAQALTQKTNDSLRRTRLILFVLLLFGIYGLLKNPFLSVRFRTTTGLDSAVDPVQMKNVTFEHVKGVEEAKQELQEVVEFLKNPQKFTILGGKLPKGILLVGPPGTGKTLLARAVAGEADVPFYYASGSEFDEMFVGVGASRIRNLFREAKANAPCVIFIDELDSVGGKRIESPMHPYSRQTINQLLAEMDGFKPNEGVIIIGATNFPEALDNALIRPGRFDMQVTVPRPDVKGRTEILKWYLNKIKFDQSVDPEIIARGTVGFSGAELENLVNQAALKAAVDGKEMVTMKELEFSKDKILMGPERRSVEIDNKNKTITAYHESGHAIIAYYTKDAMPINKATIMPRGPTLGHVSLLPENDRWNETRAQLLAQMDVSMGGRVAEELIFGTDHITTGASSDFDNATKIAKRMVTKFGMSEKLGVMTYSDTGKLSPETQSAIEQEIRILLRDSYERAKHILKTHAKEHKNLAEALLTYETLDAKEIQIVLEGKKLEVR
UniProt Q5T4F4: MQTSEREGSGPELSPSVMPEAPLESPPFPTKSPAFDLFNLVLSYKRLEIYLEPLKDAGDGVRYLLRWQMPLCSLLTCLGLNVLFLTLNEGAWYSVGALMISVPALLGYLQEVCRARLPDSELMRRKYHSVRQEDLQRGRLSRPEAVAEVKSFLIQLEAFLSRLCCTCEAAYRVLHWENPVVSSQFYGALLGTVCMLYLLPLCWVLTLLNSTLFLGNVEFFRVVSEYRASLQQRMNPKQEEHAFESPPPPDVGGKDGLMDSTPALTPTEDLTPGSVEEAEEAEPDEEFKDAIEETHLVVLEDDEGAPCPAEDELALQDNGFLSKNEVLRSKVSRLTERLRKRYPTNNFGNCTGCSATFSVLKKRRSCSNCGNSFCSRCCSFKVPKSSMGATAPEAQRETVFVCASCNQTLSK
UniProt O95619, whole entry, looked up: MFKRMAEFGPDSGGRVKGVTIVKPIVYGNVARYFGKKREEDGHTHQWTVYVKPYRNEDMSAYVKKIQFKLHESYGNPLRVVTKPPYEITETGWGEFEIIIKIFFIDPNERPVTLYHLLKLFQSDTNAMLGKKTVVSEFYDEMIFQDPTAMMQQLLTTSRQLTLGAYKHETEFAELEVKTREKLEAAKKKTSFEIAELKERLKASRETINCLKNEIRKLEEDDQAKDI
UniProt Q8IY57: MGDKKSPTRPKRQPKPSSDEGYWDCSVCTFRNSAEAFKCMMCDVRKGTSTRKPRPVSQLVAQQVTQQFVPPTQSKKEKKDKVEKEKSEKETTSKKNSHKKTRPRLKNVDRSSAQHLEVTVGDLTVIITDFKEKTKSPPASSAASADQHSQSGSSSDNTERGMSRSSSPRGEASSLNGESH
UniProt Q9BSR8: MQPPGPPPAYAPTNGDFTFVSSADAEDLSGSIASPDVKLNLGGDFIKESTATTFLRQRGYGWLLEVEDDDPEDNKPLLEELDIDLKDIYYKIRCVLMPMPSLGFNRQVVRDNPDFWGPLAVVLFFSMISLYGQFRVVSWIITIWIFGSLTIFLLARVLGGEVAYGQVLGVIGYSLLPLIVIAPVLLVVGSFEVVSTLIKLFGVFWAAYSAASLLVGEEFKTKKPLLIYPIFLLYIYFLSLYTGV
UniProt Q8N4Q0: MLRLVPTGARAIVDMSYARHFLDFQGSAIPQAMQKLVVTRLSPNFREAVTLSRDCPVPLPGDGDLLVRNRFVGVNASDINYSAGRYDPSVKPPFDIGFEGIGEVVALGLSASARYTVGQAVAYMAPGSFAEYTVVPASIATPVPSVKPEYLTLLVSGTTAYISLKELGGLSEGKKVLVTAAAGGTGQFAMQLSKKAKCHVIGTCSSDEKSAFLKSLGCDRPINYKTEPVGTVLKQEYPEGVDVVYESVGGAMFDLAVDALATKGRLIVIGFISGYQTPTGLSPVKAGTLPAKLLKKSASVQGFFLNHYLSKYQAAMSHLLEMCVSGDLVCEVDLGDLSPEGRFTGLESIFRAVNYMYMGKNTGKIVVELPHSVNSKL
UniProt Q5VVQ6: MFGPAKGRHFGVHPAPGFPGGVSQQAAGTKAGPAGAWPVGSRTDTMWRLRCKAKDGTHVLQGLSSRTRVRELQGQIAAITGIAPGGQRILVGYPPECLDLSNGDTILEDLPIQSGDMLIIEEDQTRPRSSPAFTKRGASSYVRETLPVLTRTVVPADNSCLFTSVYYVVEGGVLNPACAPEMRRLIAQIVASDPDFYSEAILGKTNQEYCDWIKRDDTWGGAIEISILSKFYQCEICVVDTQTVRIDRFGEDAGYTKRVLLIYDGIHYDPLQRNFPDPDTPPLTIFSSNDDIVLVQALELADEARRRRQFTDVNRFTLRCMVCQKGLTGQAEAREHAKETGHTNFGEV
UniProt O75844: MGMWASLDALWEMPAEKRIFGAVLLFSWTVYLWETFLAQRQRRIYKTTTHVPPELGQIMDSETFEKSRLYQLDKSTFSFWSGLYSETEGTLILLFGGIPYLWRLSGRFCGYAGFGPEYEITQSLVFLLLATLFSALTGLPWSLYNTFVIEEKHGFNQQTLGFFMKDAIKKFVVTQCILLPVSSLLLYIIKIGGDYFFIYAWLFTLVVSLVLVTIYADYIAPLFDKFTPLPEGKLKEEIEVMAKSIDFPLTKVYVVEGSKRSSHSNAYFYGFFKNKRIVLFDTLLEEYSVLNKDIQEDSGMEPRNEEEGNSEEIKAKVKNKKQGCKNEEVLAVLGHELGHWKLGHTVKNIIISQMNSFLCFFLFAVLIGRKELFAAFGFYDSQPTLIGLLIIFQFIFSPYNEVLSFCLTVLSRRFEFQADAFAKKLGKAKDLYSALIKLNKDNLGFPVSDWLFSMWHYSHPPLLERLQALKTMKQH
UniProt Q9UIJ5: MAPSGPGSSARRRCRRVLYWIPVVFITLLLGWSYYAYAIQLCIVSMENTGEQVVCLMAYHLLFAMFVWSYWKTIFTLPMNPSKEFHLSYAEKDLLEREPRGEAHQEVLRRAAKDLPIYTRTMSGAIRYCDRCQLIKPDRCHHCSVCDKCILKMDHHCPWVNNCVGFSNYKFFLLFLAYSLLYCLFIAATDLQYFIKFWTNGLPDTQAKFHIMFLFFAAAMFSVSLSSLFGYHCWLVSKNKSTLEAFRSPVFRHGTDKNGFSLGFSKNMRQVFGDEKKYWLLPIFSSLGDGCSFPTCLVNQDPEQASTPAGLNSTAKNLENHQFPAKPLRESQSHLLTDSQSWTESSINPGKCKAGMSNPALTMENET
UniProt Q9Y548: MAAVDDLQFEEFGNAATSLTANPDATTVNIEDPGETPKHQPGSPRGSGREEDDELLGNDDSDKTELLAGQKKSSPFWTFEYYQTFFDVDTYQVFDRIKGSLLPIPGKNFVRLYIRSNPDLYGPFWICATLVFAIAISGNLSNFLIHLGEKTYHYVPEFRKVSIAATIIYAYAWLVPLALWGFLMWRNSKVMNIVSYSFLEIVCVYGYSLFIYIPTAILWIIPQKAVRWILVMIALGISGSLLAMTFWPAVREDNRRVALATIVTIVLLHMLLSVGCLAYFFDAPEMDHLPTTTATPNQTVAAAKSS
UniProt O96006: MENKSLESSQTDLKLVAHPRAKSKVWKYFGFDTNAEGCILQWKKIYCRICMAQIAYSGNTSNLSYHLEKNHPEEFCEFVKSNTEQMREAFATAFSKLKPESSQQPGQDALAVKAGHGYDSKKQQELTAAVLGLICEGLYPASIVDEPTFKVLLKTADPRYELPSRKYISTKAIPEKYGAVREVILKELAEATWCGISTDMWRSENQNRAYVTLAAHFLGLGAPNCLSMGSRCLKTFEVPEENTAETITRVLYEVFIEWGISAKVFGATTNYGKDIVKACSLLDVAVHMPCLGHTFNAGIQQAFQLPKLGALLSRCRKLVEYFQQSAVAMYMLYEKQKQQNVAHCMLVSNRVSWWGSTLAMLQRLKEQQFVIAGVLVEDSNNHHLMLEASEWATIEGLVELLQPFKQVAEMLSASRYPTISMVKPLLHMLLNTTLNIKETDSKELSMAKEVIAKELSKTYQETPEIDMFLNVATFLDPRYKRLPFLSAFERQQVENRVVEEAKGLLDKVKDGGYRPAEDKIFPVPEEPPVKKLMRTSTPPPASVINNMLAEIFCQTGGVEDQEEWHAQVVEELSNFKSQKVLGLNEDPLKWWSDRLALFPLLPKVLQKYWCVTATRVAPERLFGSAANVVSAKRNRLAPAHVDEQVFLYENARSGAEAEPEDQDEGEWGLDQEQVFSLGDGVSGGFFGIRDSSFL
UniProt P67809, whole entry, looked up: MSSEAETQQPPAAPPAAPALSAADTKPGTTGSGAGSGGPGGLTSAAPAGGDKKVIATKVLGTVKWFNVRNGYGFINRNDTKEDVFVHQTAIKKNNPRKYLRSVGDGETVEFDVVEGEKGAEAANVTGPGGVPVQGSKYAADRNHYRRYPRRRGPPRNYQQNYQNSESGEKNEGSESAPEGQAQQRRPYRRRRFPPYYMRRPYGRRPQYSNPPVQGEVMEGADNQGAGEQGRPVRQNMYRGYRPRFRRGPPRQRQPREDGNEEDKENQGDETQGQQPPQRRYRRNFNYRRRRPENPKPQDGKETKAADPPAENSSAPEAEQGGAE

Tests used:
Assay in all cases: log2 fold change, soluble protein after heating vs DMSO (PISA); higher = thermal stabilisation; K562 cells, 10 uM, 30 min; active = over 0.2 and 3.5 SD of the protein, either way, in both replicates (recomputed)
[1] = compound: CC1=C(C=C(C=C1)NC(=O)C2=CC(=CC=C2)C(C)(C)C#N)NC3=CC4=C(C=C3)N=CN(C4=O)C
Method in brief: (§1)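 Thermal stability values are relative to control samples and come from duplicates. They are expressed as log2 fold changes. For measurement, K562 cells (2×10^6 cells/mL) received 10 μM compound for 30 min, and aliquots were heated for 3 min over 48°C-58°C, pooled, and extracted at 4°C in PBS with 0.5% NP-40. Soluble protein, the supernatant after 21,000xg for 90 min, was quantified by TMTpro 16plex LC-MS/MS with equalised channel sums.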

[2] = compound: CC1=C(C=C(C=C1)NC(=O)C2=CC(=CC=C2)N(C)C)NC(=O)C3=CC=C(C=C3)O
Method in brief: as §1

[3] = compound: CC1=CC=C(C=C1)SC2=C3C=C(SC3=CN=C2)C(=O)N
Method in brief: as §1

[4] = compound: CC1=NC(=CC=C1)C2=C(N=C(N2)C(C)(C)C)C3=CC4=NC=CN=C4C=C3
Method in brief: as §1

Nexturastat A = compound: CCCCN(Cc1ccc(C(=O)NO)cc1)C(=O)Nc1ccccc1 [Nexturastat A]
Method in brief: as §1

vemurafenib = compound: CCCS(=O)(=O)Nc1ccc(F)c(C(=O)c2c[nH]c3ncc(-c4ccc(Cl)cc4)cc23)c1F [vemurafenib]
Method in brief: as §1

[5] = compound: CCCS(=O)(=O)Nc1ccc(F)c(C(=O)c2c[nH]c3ncc(Cl)cc23)c1F
Method in brief: as §1

[6] = compound: CCCc1cc(C)[nH]c(=O)c1CNC(=O)c1cc(-c2ccnc(N3CCN(C)CC3)c2)cc2c1cnn2C(C)C
Method in brief: as §1

givinostat = compound: CCN(CC)Cc1ccc2cc(COC(=O)Nc3ccc(C(=O)NO)cc3)ccc2c1 [givinostat]
Method in brief: as §1

barasertib = compound: CCN(CCCOc1ccc2c(Nc3cc(CC(=O)Nc4cccc(F)c4)[nH]n3)ncnc2c1)CCOP(=O)(O)O [barasertib]
Method in brief: as §1

XPOT (UniProt O43592)
log2 fold change [1]: inactive: 0.018
log2 fold change [2]: inactive: -0.031
log2 fold change [3]: inactive: 0.023
log2 fold change [4]: inactive: 0.029
log2 fold change (Nexturastat A): inactive: -0.012
log2 fold change (vemurafenib): inactive: 0.039
log2 fold change [5]: inactive: 0.128
log2 fold change [6]: inactive: 0.014
log2 fold change (givinostat): inactive: 0.007
log2 fold change (barasertib): inactive: 0.08

ZFP91 (UniProt Q96JP5)
log2 fold change [1]: inactive: 0.017
log2 fold change [2]: inactive: 0.036
log2 fold change [3]: inactive: -0.025
log2 fold change [4]: inactive: -0.069
log2 fold change (Nexturastat A): inactive: 0.079
log2 fold change (vemurafenib): inactive: -0.071
log2 fold change [5]: inactive: -0.041
log2 fold change [6]: inactive: 0.074
log2 fold change (givinostat): inactive: 0.009
log2 fold change (barasertib): inactive: -0.105

YPEL5 (UniProt P62699)
log2 fold change [1]: inactive: -0.131
log2 fold change [2]: inactive: 0.081
log2 fold change [3]: inactive: 0.01
log2 fold change [4]: inactive: 0.097
log2 fold change (Nexturastat A): inactive: -0.144
log2 fold change (vemurafenib): inactive: -0.068
log2 fold change [5]: inactive: -0.127
log2 fold change [6]: inactive: 0.014
log2 fold change (givinostat): inactive: -0.009
log2 fold change (barasertib): inactive: 0.121

YME1L1 (UniProt Q96TA2)
log2 fold change [1]: inactive: -0.032
log2 fold change [2]: inactive: 0.042
log2 fold change [3]: inactive: 0.002
log2 fold change [4]: inactive: 0.019
log2 fold change (Nexturastat A): inactive: 0.008
log2 fold change (vemurafenib): inactive: -0.03
log2 fold change [5]: inactive: -0.027
log2 fold change [6]: inactive: -0.011
log2 fold change (givinostat): inactive: 0.018
log2 fold change (barasertib): inactive: -0.003

ZC3HC1 (UniProt Q86WB0)
log2 fold change [1]: inactive: 0.011
log2 fold change [2]: inactive: -0.209
log2 fold change [3]: inactive: 0.053
log2 fold change [4]: inactive: 0.119
log2 fold change (Nexturastat A): inactive: -0.106
log2 fold change (vemurafenib): inactive: 0.09
log2 fold change [5]: inactive: 0.189
log2 fold change [6]: inactive: 0.029
log2 fold change (givinostat): inactive: 0.031
log2 fold change (barasertib): inactive: 0.108

ZFYVE27 isoform 2 (UniProt Q5T4F4)
log2 fold change [1]: inactive: 0.006
log2 fold change [2]: inactive: -0.009
log2 fold change [3]: inactive: -0.015
log2 fold change [4]: inactive: -0.012
log2 fold change (Nexturastat A): inactive: 0.054
log2 fold change (vemurafenib): inactive: -0.075
log2 fold change [5]: inactive: 0.016
log2 fold change [6]: inactive: -0.004
log2 fold change (givinostat): inactive: -0.047
log2 fold change (barasertib): inactive: 0.006

YEATS4 (UniProt O95619)
log2 fold change [1]: inactive: 0.024
log2 fold change [2]: inactive: 0.03
log2 fold change [3]: inactive: -0.03
log2 fold change [4]: inactive: -0.003
log2 fold change (Nexturastat A): inactive: -0.015
log2 fold change (vemurafenib): inactive: -0.093
log2 fold change [5]: inactive: -0.025
log2 fold change [6]: inactive: 0.026
log2 fold change (givinostat): inactive: -0.055
log2 fold change (barasertib): inactive: 0.029

YJU2 (UniProt Q9BW85)
log2 fold change [1]: inactive: 0.03
log2 fold change [2]: inactive: -0.051
log2 fold change [3]: inactive: -0.004
log2 fold change [4]: inactive: 0.074
log2 fold change (Nexturastat A): inactive: -0.127
log2 fold change (vemurafenib): inactive: -0.05
log2 fold change [5]: inactive: 0.013
log2 fold change [6]: inactive: -0.068
log2 fold change (givinostat): inactive: -0.039
log2 fold change (barasertib): inactive: 0

YAF2 isoform 5 (UniProt Q8IY57)
log2 fold change [1]: inactive: 0.089
log2 fold change [2]: inactive: 0.065
log2 fold change [3]: inactive: -0.02
log2 fold change [4]: inactive: -0.102
log2 fold change (Nexturastat A): inactive: 0.109
log2 fold change (vemurafenib): inactive: -0.13
log2 fold change [5]: inactive: 0.007
log2 fold change [6]: inactive: 0.188
log2 fold change (givinostat): inactive: 0
log2 fold change (barasertib): inactive: -0.147

XPO7 (UniProt E7ESC6)
log2 fold change [1]: inactive: -0.004
log2 fold change [2]: inactive: -0.009
log2 fold change [3]: inactive: 0.019
log2 fold change [4]: inactive: 0.024
log2 fold change (Nexturastat A): inactive: 0.006
log2 fold change (vemurafenib): inactive: 0.022
log2 fold change [5]: inactive: 0.052
log2 fold change [6]: inactive: -0.006
log2 fold change (givinostat): inactive: -0.046
log2 fold change (barasertib): inactive: 0.02

YIPF4 (UniProt Q9BSR8)
log2 fold change [1]: inactive: 0.013
log2 fold change [2]: inactive: 0.025
log2 fold change [3]: inactive: -0.023
log2 fold change [4]: inactive: -0.067
log2 fold change (Nexturastat A): inactive: 0.021
log2 fold change (vemurafenib): inactive: 0.03
log2 fold change [5]: inactive: -0.01
log2 fold change [6]: inactive: -0.036
log2 fold change (givinostat): inactive: -0.048
log2 fold change (barasertib): inactive: 0.026

ZADH2 (UniProt Q8N4Q0)
log2 fold change [1]: active: 0.453
log2 fold change [2]: inactive: -0.047
log2 fold change [3]: inactive: -0.015
log2 fold change [4]: inactive: -0.004
log2 fold change (Nexturastat A): inactive: 0.005
log2 fold change (vemurafenib): inactive: 0
log2 fold change [5]: inactive: -0.012
log2 fold change [6]: inactive: 0.004
log2 fold change (givinostat): inactive: -0.066
log2 fold change (barasertib): inactive: 0.049

ZFYVE1 (UniProt Q9HBF4)
log2 fold change [1]: inactive: -0.093
log2 fold change [2]: inactive: -0.035
log2 fold change [3]: inactive: -0.026
log2 fold change [4]: inactive: 0.026
log2 fold change (Nexturastat A): inactive: -0.1
log2 fold change (vemurafenib): inactive: -0.049
log2 fold change [5]: inactive: -0.107
log2 fold change [6]: inactive: -0.122
log2 fold change (givinostat): inactive: 0.113
log2 fold change (barasertib): inactive: 0.045

ZDHHC20 (UniProt Q5W0Z9)
log2 fold change [1]: inactive: -0.067
log2 fold change [2]: inactive: 0.085
log2 fold change [3]: inactive: 0.014
log2 fold change [4]: inactive: -0.007
log2 fold change (Nexturastat A): inactive: -0.149
log2 fold change (vemurafenib): inactive: 0.049
log2 fold change [5]: inactive: 0.138
log2 fold change [6]: inactive: -0.079
log2 fold change (givinostat): inactive: -0.167
log2 fold change (barasertib): inactive: 0.022

ZC3H4 (UniProt Q9UPT8)
log2 fold change [1]: inactive: -0.061
log2 fold change [2]: inactive: -0.007
log2 fold change [3]: inactive: -0.027
log2 fold change [4]: inactive: -0.112
log2 fold change (Nexturastat A): inactive: 0.238
log2 fold change (vemurafenib): inactive: -0.082
log2 fold change [5]: inactive: -0.009
log2 fold change [6]: inactive: 0.083
log2 fold change (givinostat): inactive: -0.059
log2 fold change (barasertib): inactive: -0.107

YOD1 (UniProt Q5VVQ6)
log2 fold change [1]: inactive: 0.067
log2 fold change [2]: inactive: -0.028
log2 fold change [3]: inactive: 0.009
log2 fold change [4]: inactive: 0.026
log2 fold change (Nexturastat A): inactive: -0.011
log2 fold change (vemurafenib): inactive: -0.001
log2 fold change [5]: inactive: 0.033
log2 fold change [6]: inactive: -0.017
log2 fold change (givinostat): inactive: 0.024
log2 fold change (barasertib): inactive: 0.051

ZC3HAV1 (UniProt Q7Z2W4)
log2 fold change [1]: inactive: 0.043
log2 fold change [2]: inactive: -0.048
log2 fold change [3]: inactive: -0.06
log2 fold change [4]: inactive: -0.057
log2 fold change (Nexturastat A): inactive: 0.495
log2 fold change (vemurafenib): inactive: 0.042
log2 fold change [5]: inactive: 0.012
log2 fold change [6]: inactive: 0.138
log2 fold change (givinostat): inactive: 0.157
log2 fold change (barasertib): inactive: -0.089

ZMPSTE24 (UniProt O75844)
log2 fold change [1]: inactive: 0.067
log2 fold change [2]: inactive: 0
log2 fold change [3]: inactive: -0.005
log2 fold change [4]: inactive: -0.003
log2 fold change (Nexturastat A): inactive: -0.106
log2 fold change (vemurafenib): inactive: 0.054
log2 fold change [5]: inactive: 0.009
log2 fold change [6]: inactive: -0.008
log2 fold change (givinostat): inactive: 0.033
log2 fold change (barasertib): inactive: 0

ZDHHC2 (UniProt Q9UIJ5)
log2 fold change [1]: inactive: -0.095
log2 fold change [2]: inactive: -0.025
log2 fold change [3]: inactive: 0.017
log2 fold change [4]: inactive: 0.044
log2 fold change [5]: inactive: 0.015
log2 fold change [6]: inactive: 0.035
log2 fold change (barasertib): inactive: -0.081

YIPF1 (UniProt Q9Y548)
log2 fold change [1]: inactive: -0.23
log2 fold change [3]: inactive: -0.018
log2 fold change (vemurafenib): inactive: -0.089
log2 fold change [5]: inactive: 0.024
log2 fold change [6]: inactive: 0.081
log2 fold change (givinostat): inactive: 0.004
log2 fold change (barasertib): inactive: -0.093

ZBED1 (UniProt O96006)
log2 fold change [1]: inactive: 0.038
log2 fold change [3]: inactive: 0.039
log2 fold change (Nexturastat A): inactive: 0.062
log2 fold change [5]: inactive: -0.077
log2 fold change (barasertib): inactive: 0.157

ZC3H7B (UniProt Q9UGR2)
log2 fold change [1]: inactive: 0.038
log2 fold change [2]: inactive: 0.057
log2 fold change [4]: inactive: 0.234
log2 fold change [6]: inactive: -0.048

YBX1 (UniProt P67809)
log2 fold change [1]: inactive: 0.041
log2 fold change [2]: inactive: 0.011
log2 fold change [3]: inactive: -0.124
log2 fold change [4]: inactive: -0.11
log2 fold change (Nexturastat A): inactive: 0.231
log2 fold change (vemurafenib): inactive: -0.12
log2 fold change [5]: inactive: -0.137
log2 fold change [6]: inactive: 0.055
log2 fold change (givinostat): inactive: -0.056
log2 fold change (barasertib): inactive: -0.127

XPO6 (UniProt Q96QU8)
log2 fold change [1]: inactive: 0.008
log2 fold change [2]: inactive: -0.221
log2 fold change [3]: inactive: 0.041
log2 fold change [4]: inactive: -0.369
log2 fold change (Nexturastat A): active: 0.767
log2 fold change (vemurafenib): inactive: 0.082
log2 fold change [5]: inactive: 0.13
log2 fold change [6]: inactive: 0.028
log2 fold change (givinostat): inactive: 0.068
log2 fold change (barasertib): inactive: -0.003

ZDHHC18 (UniProt Q9NUE0)
log2 fold change [1]: inactive: 0.007
log2 fold change [2]: inactive: 0.044
log2 fold change [3]: inactive: 0.173
log2 fold change [4]: inactive: -0.06
log2 fold change (Nexturastat A): inactive: 0.028
log2 fold change [5]: inactive: 0.052
log2 fold change [6]: inactive: 0.065
log2 fold change (givinostat): inactive: -0.039
log2 fold change (barasertib): inactive: -0.107
